{"source": "PubChem BioAssay AID248", "about": "(DTP/NCI, 2004)", "test_system": "L1210 leukemia ip in BDF1 mice, survival T/C", "experiment": "NCI In Vivo Anticancer Drug Screen. Data for tumor model L1210 Leukemia (intraperitoneal) in B6D2F1 (BDF1) mice", "details": "T/C endpoint: mean survival time, higher T/C = longer survival", "key": {"[1]": {"details": "dose: 8.0 mg/kg/injection, schedule: Q01DX009 (ip), vehicle: saline"}, "[2]": {"details": "dose: 12.0 mg/kg/injection, schedule: Q01DX009 (ip), vehicle: saline"}, "[3]": {"details": "dose: 500.0 mg/kg/injection, schedule: Q01DX001 (ip), vehicle: saline"}}, "note": "The list does not hold the whole screen: its compounds were picked by chemical class. Other doses and runs of a compound may be missing. T/C: endpoint of the treated group in % of that of the vehicle group. Where survival is the endpoint, this PubChem deposit counts one and a half times the control or more as active, and values a quarter to a half above the control carry no call in these data; other NCI protocols may use other cut-offs. Some T/C values are marked as having no survivor count here; that says nothing about deaths at the dose. Schedule codes are those of the source, taken here to give the interval after Q, in days (D) or hours (H), and the number of doses after X. Counts like (3×) count equal records among those shown. Some entries hold several experiments; the results are listed from low to high. Some schedules carry Z or #; the key to these is not given.", "data": [{"smiles": "Cc1cc(C)c2nc(CN(CCCl)CCCl)[nH]c2c1", "values": [{"measurement": "T/C", "setting": "dose: 12.0 mg/kg/injection, schedule: Q01DX Z (ip), vehicle: methylcellulose (MC)", "value": "96 [survivor count not shown] and 103 % of control [survivor count not shown]"}, {"measurement": "T/C", "setting": "dose: 12.5 mg/kg/injection, schedule: Q01DX010 (ip), vehicle: carboxymethylcellulose (CMC)", "value": "98 % of control [survivor count not shown]"}, {"measurement": "T/C", "setting": "dose: 18.0 mg/kg/injection, schedule: Q01DX Z (ip), vehicle: methylcellulose (MC)", "value": "96 [survivor count not shown] and 109 % of control [survivor count not shown]"}, {"measurement": "T/C", "setting": "dose: 21.0 mg/kg/injection, schedule: Q01DX Z (ip), vehicle: carboxymethylcellulose (CMC)", "value": "108 % of control [survivor count not shown]"}, {"measurement": "T/C", "setting": "dose: 25.0 mg/kg/injection, schedule: Q01DX010 (ip), vehicle: carboxymethylcellulose (CMC)", "value": "93 % of control [survivor count not shown]"}, {"measurement": "T/C", "setting": "dose: 27.0 mg/kg/injection, schedule: Q01DX Z (ip), vehicle: methylcellulose (MC)", "value": "106 [survivor count not shown] and 117 % of control [survivor count not shown]"}, {"measurement": "T/C", "setting": "dose: 31.0 mg/kg/injection, schedule: Q01DX Z (ip), vehicle: carboxymethylcellulose (CMC)", "value": "119 % of control [survivor count not shown]"}, {"measurement": "T/C", "setting": "dose: 40.5 mg/kg/injection, schedule: Q01DX Z (ip), vehicle: methylcellulose (MC)", "value": "106 [survivor count not shown] and 107 % of control [survivor count not shown]"}, {"measurement": "T/C", "setting": "dose: 47.0 mg/kg/injection, schedule: Q01DX Z (ip), vehicle: carboxymethylcellulose (CMC)", "value": "125 % of control [survivor count not shown]"}, {"measurement": "T/C", "setting": "dose: 50.0 mg/kg/injection, schedule: Q01DX010 (ip), vehicle: carboxymethylcellulose (CMC)", "value": "116 % of control [survivor count not shown]"}, {"measurement": "T/C", "setting": "dose: 60.0 mg/kg/injection, schedule: Q01DX Z (ip), vehicle: carboxymethylcellulose (CMC)", "value": "105 % of control [survivor count not shown]"}, {"measurement": "T/C", "setting": "dose: 61.0 mg/kg/injection, schedule: Q01DX Z (ip), vehicle: carboxymethylcellulose (CMC)", "value": "125 % of control [survivor count not shown]"}, {"measurement": "T/C", "setting": "dose: 90.0 mg/kg/injection, schedule: Q01DX Z (ip), vehicle: carboxymethylcellulose (CMC)", "value": "103 % of control [survivor count not shown]"}, {"measurement": "T/C", "setting": "dose: 91.5 mg/kg/injection, schedule: Q01DX Z (ip), vehicle: carboxymethylcellulose (CMC)", "value": "125 % of control [survivor count not shown]"}, {"measurement": "T/C", "setting": "dose: 100.0 mg/kg/injection, schedule: Q01DX010 (ip), vehicle: carboxymethylcellulose (CMC)", "value": "98 % of control [survivor count not shown]"}, {"measurement": "T/C", "setting": "dose: 120.0 mg/kg/injection, schedule: Q01DX Z (ip), vehicle: carboxymethylcellulose (CMC)", "value": "106 % of control [survivor count not shown]"}, {"measurement": "T/C", "setting": "dose: 137.0 mg/kg/injection, schedule: Q01DX Z (ip), vehicle: carboxymethylcellulose (CMC)", "value": "88 % of control [survivor count not shown]"}]}, {"smiles": "COc1ccc(N(CCCl)CCCl)cc1", "values": [{"measurement": "T/C", "setting": "dose: 3.0 mg/kg/injection, schedule: Q01DX009 (ip), vehicle: saline", "value": "113 % of control [survivor count not shown]"}, {"measurement": "T/C", "setting": "dose: 5.0 mg/kg/injection, schedule: Q01DX009 (ip), vehicle: saline", "value": "101 % of control [survivor count not shown]"}, {"measurement": "T/C", "setting": "dose: 7.0 mg/kg/injection, schedule: Q01DX009 (ip), vehicle: saline", "value": "102 % of control [survivor count not shown]"}, {"measurement": "T/C", "setting": "[1]", "value": "106 % of control [survivor count not shown]"}, {"measurement": "T/C", "setting": "[2]", "value": "113 % of control [survivor count not shown]"}, {"measurement": "T/C", "setting": "dose: 14.0 mg/kg/injection, schedule: Q01DX009 (ip), vehicle: saline", "value": "116 % of control [survivor count not shown]"}, {"measurement": "T/C", "setting": "dose: 18.0 mg/kg/injection, schedule: Q01DX009 (ip), vehicle: acetone", "value": "140 % of control [survivor count not shown]"}, {"measurement": "T/C", "setting": "dose: 28.0 mg/kg/injection, schedule: Q01DX009 (ip), vehicle: saline", "value": "110 % of control [survivor count not shown]"}, {"measurement": "T/C", "setting": "dose: 35.0 mg/kg/injection, schedule: Q01DX009 (ip), vehicle: acetone", "value": "128 % of control [survivor count not shown]"}, {"measurement": "T/C", "setting": "dose: 37.5 mg/kg/injection, schedule: Q01DX001 (ip), vehicle: saline", "value": "115 % of control [survivor count not shown]"}, {"measurement": "T/C", "setting": "dose: 44.0 mg/kg/injection, schedule: Q01DX001 (ip), vehicle: saline", "value": "109 % of control [survivor count not shown]"}, {"measurement": "T/C", "setting": "dose: 56.0 mg/kg/injection, schedule: Q01DX009 (ip), vehicle: saline", "value": "127 % of control [survivor count not shown] (2×)"}, {"measurement": "T/C", "setting": "dose: 66.0 mg/kg/injection, schedule: Q01DX001 (ip), vehicle: saline", "value": "98 % of control [survivor count not shown]"}, {"measurement": "T/C", "setting": "dose: 75.0 mg/kg/injection, schedule: Q01DX001 (ip), vehicle: saline", "value": "127 % of control [survivor count not shown]"}, {"measurement": "T/C", "setting": "dose: 100.0 mg/kg/injection, schedule: Q01DX001 (ip), vehicle: saline", "value": "106 % of control [survivor count not shown]"}, {"measurement": "T/C", "setting": "dose: 113.0 mg/kg/injection, schedule: Q01DX009 (ip), vehicle: saline", "value": "135 % of control [survivor count not shown]"}, {"measurement": "T/C", "setting": "dose: 150.0 mg/kg/injection, schedule: Q01DX001 (ip), vehicle: saline", "value": "117 [survivor count not shown] and 152 % of control [survivor count not shown]"}, {"measurement": "T/C", "setting": "dose: 225.0 mg/kg/injection, schedule: Q01DX001 (ip), vehicle: saline", "value": "117 [survivor count not shown] and 132 % of control [survivor count not shown]"}, {"measurement": "T/C", "setting": "dose: 225.0 mg/kg/injection, schedule: Q01DX009 (ip), vehicle: saline", "value": "118 % of control [survivor count not shown]"}, {"measurement": "T/C", "setting": "dose: 335.0 mg/kg/injection, schedule: Q01DX001 (ip), vehicle: saline", "value": "93 % of control [survivor count not shown]"}, {"measurement": "T/C", "setting": "dose: 450.0 mg/kg/injection, schedule: Q01DX009 (ip), vehicle: saline", "value": "91 % of control [survivor count not shown]"}, {"measurement": "T/C", "setting": "[3]", "value": "96 % of control [survivor count not shown]"}]}, {"smiles": "CCC1(CC)NC(=O)N(CCN(CCCl)CCCl)C1=O", "values": [{"measurement": "T/C", "setting": "dose: 2.0 mg/kg/injection, schedule: Q04DX003 (ip), vehicle: saline with Tween-80", "value": "104 % of control [survivor count not shown]"}, {"measurement": "T/C", "setting": "dose: 4.0 mg/kg/injection, schedule: Q01DX009 (ip), vehicle: saline", "value": "124 % of control [survivor count not shown]"}, {"measurement": "T/C", "setting": "dose: 4.0 mg/kg/injection, schedule: Q04DX003 (ip), vehicle: saline with Tween-80", "value": "112 % of control [survivor count not shown]"}, {"measurement": "T/C", "setting": "dose: 5.2 mg/kg/injection, schedule: Q01DX009 (ip), vehicle: saline", "value": "112 [survivor count not shown] and 123 % of control [survivor count not shown]"}, {"measurement": "T/C", "setting": "[1]", "value": "118 [survivor count not shown], 132 [survivor count not shown], 140 % of control [survivor count not shown]"}, {"measurement": "T/C", "setting": "dose: 8.0 mg/kg/injection, schedule: Q04DX003 (ip), vehicle: saline with Tween-80", "value": "126 % of control [survivor count not shown]"}, {"measurement": "T/C", "setting": "[2]", "value": "101 [survivor count not shown] and 112 % of control [survivor count not shown]"}, {"measurement": "T/C", "setting": "dose: 16.0 mg/kg/injection, schedule: Q01DX009 (ip), vehicle: saline", "value": "87 % of control [survivor count not shown]"}, {"measurement": "T/C", "setting": "dose: 16.0 mg/kg/injection, schedule: Q04DX003 (ip), vehicle: saline", "value": "124 % of control [survivor count not shown]"}, {"measurement": "T/C", "setting": "dose: 25.0 mg/kg/injection, schedule: Q04DX003 (ip), vehicle: saline", "value": "141 % of control [survivor count not shown]"}]}, {"smiles": "CC1(C)OCC(COP(N)(=O)N(CCCl)CCCl)O1", "note": "(configuration not stated)", "values": [{"measurement": "T/C", "setting": "dose: 100.0 mg/kg/injection, schedule: Q08DX002 (ip), vehicle: saline", "value": "92 % of control [survivor count not shown]"}, {"measurement": "T/C", "setting": "dose: 125.0 mg/kg/injection, schedule: Q01DX001 (ip), vehicle: saline", "value": "103 % of control [survivor count not shown]"}, {"measurement": "T/C", "setting": "dose: 200.0 mg/kg/injection, schedule: Q08DX002 (ip), vehicle: saline", "value": "87 % of control [survivor count not shown]"}, {"measurement": "T/C", "setting": "dose: 250.0 mg/kg/injection, schedule: Q01DX001 (ip), vehicle: saline", "value": "106 % of control [survivor count not shown]"}, {"measurement": "T/C", "setting": "dose: 400.0 mg/kg/injection, schedule: Q08DX002 (ip), vehicle: saline", "value": "103 % of control [survivor count not shown]"}, {"measurement": "T/C", "setting": "[3]", "value": "101 % of control [survivor count not shown]"}, {"measurement": "T/C", "setting": "dose: 800.0 mg/kg/injection, schedule: Q08DX002 (ip), vehicle: saline", "value": "107 % of control [survivor count not shown]"}, {"measurement": "T/C", "setting": "dose: 1000.0 mg/kg/injection, schedule: Q01DX001 (ip), vehicle: saline", "value": "108 % of control [survivor count not shown]"}]}]}
